Laboratory results as given in PMC8575317.
Results are given in words; binding and its absence hold for the method and conditions named. In cells and extracts the contact can be indirect. Here binding means that the protein was enriched with, or labelled near, the bait; the list need not be complete. For some assays here: Where a sequence is shown, tags or fusion partners need not be part of it. One block for each molecule: values may come before it.

By UniProt entry, the sequences of proteins in these tests, tags left out. Where a name states a change or a piece, a line headed by the entry shows the natural chain unless it says otherwise.
UniProt E9AHW1: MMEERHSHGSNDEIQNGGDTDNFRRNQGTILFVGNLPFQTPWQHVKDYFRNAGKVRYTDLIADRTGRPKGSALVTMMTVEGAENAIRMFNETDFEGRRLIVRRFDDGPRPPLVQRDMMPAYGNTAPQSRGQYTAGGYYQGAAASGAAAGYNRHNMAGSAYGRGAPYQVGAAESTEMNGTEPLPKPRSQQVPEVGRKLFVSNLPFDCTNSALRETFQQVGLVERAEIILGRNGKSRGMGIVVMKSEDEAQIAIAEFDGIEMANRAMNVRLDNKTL
UniProt A4HXC9: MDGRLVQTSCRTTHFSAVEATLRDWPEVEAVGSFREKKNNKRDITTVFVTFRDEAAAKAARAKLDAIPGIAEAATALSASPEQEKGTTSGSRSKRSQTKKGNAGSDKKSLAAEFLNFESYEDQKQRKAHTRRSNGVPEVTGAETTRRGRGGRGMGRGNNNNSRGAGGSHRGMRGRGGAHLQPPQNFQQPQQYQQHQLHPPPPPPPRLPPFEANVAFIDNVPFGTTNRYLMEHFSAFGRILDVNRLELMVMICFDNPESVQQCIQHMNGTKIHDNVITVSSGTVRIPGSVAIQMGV
UniProt A4I2T3: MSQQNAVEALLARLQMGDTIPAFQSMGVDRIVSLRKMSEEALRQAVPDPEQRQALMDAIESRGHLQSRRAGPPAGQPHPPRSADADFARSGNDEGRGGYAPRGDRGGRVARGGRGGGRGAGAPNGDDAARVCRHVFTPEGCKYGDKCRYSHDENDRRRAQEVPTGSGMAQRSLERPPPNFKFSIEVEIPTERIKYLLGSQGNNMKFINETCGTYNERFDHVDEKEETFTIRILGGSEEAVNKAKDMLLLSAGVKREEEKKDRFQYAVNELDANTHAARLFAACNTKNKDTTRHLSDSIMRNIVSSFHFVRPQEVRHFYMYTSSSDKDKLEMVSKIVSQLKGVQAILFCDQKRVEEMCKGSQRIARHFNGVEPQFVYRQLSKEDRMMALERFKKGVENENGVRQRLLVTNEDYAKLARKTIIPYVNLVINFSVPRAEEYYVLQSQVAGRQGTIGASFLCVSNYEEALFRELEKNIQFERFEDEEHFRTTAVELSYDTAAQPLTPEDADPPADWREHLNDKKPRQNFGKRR

Key:
[1] = target: HA-tagged L. infantum DRBD2 (L. infantum) (UniProt E9AHW1); assay: affinity purification with mass spectrometry; anti-HA magnetic beads, HA-tagged RBP23 or DRBD2 from L. infantum cytoplasmic extracts (nitrogen cavitation), 1 h at 4 C, washed with PBS, not RNase treated; control: extracts of non-transfected cells; two independent experiments
[2] = target: HA-tagged L. infantum RBP23 (L. infantum) (UniProt A4HXC9); assay: as above
[3] = target: T1, HA-tagged L. infantum PABP1 (L. infantum) (UniProt A4IC57); assay: affinity purification with mass spectrometry; pilot analysis: anti-HA IPs of HA-tagged PABP1, PABP2 or PABP3 from L. infantum cytoplasmic extracts (lysis with glass beads), not RNase treated; two independent experiments
T1 sequence: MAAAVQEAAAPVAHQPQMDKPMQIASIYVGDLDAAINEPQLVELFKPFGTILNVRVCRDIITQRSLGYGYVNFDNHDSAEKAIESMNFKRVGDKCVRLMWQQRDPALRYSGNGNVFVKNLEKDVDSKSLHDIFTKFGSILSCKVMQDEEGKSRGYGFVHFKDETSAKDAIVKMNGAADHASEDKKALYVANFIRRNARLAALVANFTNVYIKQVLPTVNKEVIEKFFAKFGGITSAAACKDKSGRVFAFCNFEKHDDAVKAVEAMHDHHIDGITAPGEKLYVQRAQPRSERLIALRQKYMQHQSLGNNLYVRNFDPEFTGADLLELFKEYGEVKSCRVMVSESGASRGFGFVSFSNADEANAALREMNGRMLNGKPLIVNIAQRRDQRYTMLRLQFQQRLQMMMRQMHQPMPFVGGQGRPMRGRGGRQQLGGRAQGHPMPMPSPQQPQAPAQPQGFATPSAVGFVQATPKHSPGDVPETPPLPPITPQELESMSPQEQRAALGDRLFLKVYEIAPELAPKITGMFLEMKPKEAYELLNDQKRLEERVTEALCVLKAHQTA

[4] = target: T2, HA-tagged L. infantum PABP2 (L. infantum) (UniProt A4IBV3); assay: as above
T2 sequence: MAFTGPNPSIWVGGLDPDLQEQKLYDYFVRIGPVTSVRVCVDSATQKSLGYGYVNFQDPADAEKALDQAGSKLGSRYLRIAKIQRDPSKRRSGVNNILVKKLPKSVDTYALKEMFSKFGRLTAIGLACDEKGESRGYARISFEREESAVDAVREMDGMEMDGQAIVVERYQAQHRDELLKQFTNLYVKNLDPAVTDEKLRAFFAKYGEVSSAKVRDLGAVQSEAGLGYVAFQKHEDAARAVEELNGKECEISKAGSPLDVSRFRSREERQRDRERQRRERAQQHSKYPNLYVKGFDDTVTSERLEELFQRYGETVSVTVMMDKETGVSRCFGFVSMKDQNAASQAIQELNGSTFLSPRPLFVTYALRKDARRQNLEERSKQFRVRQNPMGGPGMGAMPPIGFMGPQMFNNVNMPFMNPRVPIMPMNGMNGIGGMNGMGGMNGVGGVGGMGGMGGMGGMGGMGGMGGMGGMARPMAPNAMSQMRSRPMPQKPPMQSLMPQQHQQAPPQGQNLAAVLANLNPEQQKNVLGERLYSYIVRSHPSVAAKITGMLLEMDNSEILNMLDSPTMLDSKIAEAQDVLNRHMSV

[5] = target: T3, HA-tagged L. infantum PABP3 (L. infantum) (UniProt A4I150); assay: as above
T3 sequence: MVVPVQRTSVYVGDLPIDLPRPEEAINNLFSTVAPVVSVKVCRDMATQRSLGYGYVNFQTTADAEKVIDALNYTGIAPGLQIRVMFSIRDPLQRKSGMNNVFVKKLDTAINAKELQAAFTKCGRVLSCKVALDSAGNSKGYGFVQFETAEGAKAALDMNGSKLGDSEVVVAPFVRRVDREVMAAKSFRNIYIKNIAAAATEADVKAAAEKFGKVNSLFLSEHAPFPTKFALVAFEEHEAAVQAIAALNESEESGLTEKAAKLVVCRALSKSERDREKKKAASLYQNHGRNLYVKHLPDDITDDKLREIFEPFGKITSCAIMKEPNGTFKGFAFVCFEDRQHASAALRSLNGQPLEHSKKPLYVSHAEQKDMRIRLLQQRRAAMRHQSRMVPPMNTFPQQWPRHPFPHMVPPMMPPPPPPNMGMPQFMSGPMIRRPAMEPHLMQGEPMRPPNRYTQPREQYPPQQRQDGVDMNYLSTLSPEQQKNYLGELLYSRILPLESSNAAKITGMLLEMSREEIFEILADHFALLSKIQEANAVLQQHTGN

Molecule: DRBD2 (dsRNA-binding domain 2) (from UniProt E9AHW1)
- binding [4]: binds

Molecule: RNA-binding protein 23 (from UniProt A4HXC9)
- binding [1]: binds
- binding [3]: binds

B2: Poly(A)-binding protein 3 (protein, UniProt A4I150 1-544)
chain: T3 sequence
- binding [1]: binds
- binding [2]: binds

Next, values leading:

- binding [1]: binds
- binding [2]: binds
- binding [3]: binds
- binding [4]: binds
- binding [5]: binds
Molecule: CCCH-Zinc finger 41 (from UniProt A4I2T3)

- binding [1]: binds
- binding [2]: binds
B1: Eukaryotic translation initiation factor 4G3 (protein, UniProt A4HX58 1-635)
chain: MQFTVEQIRSVRNNYLEPPYPGFSLDEVVRRRRLTQTKLVRGENAWVAKGTAQTTEEWVQRLLHGTLNKLTEENKDIMIDKLLTKELFATEDIMNMVVNIIFKKALDEPENSKLYAGVCHSLALYEANVLRDGHKGERPQSQLRDAIISTVQHEFRTLSKELSKMEDKSEEELEYERSNVMRRKRSNMRFIGELYLCTALTHSTMFTVMDLTMRCSDKTGFPSSENIELLAALLNTIGDRLDQNHKKTLDRYFTSLENFNKKPDCPYPPRIRFKIMDLLDLRKRGWGSKPKPVKAALPPSHGKDKKCATAPPPKKGGRDQGSAAAASKSWRDAATMKTGTAAAPASSTGKGLNGRGTSSASPAANTTALSTSAAVTVAATAPAGASFRDEASPQVPLVKFELRVASMFQEWVADRTNDVILHWVDQFNTCDRFFESESELCVAVAQEVIHSACTTTRKDAQREAFSFLVVGLYMIDTEVFDGFASALASAIEDGLLEDVPKFGERFMSMLRLTSTEQETRADVYFDAANVLRLTYNRLESPDDSAVDTLMSFWDRVPLPSTDEENMIRMDLDVVYSLCNPEGAQDGLEKLLSRIIHSMLQMQLMDAEVLDEFLCLDVQEGVCAKVIADYKERFPK

- binding [1]: binds
- binding [2]: binds
B3: Poly(A)-binding protein 2 (protein, UniProt A4IBV3 1-585)
chain: T2 sequence
